Results taken from the supplement of paper PMC11006884.
The entries are a selection whose mix differs from that of the whole data set.

By UniProt entry, the sequences of proteins in these tests, tags left out. Where a name states a change or a piece, a line headed by the entry shows the natural chain unless it says otherwise.
UniProt P46013: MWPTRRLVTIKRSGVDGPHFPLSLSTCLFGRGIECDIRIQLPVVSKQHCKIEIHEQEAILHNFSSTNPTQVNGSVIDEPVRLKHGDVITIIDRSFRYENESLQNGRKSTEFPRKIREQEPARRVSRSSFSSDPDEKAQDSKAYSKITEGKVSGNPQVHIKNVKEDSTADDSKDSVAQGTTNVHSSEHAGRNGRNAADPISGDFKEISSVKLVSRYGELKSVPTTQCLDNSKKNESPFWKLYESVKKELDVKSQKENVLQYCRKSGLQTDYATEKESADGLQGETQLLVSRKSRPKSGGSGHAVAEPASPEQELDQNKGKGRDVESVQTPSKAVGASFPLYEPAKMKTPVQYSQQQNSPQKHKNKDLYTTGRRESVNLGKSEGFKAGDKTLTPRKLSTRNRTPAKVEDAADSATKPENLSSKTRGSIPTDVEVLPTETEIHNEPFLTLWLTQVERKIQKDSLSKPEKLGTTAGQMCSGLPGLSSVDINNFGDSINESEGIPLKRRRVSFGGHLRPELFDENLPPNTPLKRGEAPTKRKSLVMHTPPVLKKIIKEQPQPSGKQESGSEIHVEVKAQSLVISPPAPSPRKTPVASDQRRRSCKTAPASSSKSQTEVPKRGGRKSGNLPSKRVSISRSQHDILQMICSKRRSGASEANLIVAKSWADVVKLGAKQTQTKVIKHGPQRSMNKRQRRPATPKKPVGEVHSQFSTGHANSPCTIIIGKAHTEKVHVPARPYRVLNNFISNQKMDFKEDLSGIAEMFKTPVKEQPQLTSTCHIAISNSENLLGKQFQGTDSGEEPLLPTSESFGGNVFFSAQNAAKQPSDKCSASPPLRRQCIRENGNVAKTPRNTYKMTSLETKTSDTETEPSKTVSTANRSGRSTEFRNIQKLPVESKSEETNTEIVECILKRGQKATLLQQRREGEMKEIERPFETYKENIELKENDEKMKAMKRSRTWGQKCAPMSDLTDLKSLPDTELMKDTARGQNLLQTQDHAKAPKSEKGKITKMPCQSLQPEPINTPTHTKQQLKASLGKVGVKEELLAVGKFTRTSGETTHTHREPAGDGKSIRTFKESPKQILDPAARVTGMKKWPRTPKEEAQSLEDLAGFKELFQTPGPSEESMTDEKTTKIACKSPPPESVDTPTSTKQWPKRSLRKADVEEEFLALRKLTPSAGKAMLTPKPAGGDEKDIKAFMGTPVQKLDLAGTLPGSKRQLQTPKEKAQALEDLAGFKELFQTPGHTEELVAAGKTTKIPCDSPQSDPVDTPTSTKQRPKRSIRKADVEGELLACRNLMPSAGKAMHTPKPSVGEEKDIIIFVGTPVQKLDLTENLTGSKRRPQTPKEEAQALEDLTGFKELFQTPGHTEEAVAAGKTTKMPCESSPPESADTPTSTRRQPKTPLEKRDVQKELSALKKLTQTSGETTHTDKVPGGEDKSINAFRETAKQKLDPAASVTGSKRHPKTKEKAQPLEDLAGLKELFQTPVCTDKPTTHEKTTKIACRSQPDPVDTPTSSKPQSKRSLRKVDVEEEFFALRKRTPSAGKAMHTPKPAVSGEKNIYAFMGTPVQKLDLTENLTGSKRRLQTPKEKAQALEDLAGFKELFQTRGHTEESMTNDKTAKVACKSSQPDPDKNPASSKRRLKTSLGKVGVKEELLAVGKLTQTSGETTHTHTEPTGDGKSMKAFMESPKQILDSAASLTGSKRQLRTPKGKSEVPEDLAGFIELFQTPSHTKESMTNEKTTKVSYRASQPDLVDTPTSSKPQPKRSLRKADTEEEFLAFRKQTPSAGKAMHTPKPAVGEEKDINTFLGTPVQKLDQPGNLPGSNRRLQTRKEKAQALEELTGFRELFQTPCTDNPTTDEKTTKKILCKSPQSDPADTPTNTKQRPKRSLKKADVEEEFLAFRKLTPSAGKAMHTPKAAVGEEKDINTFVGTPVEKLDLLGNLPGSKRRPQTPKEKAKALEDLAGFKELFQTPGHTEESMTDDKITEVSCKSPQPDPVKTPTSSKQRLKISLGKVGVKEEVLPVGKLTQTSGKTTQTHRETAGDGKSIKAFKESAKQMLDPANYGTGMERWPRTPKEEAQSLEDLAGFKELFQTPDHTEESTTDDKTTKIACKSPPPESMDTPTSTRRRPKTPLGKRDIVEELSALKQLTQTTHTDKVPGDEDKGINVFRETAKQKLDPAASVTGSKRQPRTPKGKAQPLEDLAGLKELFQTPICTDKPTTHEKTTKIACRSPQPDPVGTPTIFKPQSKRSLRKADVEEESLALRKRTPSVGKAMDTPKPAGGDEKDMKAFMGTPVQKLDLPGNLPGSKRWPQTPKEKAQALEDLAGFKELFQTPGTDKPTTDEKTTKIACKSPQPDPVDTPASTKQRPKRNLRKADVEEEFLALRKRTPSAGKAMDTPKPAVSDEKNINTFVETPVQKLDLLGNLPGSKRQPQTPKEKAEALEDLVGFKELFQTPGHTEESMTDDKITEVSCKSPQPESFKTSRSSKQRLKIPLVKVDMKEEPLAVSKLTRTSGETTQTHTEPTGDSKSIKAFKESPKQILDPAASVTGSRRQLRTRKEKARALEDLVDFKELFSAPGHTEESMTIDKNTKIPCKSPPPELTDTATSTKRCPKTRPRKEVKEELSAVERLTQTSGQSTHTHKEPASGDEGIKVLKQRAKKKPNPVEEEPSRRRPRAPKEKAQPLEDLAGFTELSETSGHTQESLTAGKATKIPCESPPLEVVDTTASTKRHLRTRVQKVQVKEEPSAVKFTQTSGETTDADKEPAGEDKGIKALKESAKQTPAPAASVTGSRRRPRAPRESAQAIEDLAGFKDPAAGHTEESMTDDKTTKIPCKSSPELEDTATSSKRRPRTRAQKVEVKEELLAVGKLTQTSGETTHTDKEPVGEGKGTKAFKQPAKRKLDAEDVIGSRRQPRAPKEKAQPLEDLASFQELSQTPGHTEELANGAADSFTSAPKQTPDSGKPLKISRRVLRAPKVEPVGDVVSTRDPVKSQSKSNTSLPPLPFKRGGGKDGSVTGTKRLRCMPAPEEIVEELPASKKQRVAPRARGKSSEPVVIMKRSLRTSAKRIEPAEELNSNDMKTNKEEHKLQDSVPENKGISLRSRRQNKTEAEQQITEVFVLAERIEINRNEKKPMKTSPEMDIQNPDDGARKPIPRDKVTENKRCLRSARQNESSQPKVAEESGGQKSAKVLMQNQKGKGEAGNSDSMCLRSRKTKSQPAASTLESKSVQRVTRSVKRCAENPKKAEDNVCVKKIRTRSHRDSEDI
UniProt P51116, whole entry, looked up: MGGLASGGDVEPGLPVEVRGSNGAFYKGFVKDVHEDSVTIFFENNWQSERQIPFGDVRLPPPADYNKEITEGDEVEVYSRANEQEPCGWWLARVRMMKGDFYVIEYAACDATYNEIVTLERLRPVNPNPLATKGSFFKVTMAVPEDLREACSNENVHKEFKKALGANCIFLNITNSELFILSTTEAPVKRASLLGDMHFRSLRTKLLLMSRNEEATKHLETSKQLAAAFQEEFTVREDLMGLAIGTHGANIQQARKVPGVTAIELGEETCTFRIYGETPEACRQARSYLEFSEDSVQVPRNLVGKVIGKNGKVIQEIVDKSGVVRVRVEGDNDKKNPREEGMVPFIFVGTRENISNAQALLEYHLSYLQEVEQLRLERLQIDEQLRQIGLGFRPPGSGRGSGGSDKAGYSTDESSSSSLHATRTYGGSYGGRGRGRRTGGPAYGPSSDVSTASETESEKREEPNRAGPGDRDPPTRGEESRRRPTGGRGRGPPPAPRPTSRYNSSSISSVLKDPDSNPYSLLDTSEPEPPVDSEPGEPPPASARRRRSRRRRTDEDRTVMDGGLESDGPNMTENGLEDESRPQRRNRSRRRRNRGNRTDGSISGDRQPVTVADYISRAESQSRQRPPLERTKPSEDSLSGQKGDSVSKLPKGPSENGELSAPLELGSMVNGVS
UniProt P45880: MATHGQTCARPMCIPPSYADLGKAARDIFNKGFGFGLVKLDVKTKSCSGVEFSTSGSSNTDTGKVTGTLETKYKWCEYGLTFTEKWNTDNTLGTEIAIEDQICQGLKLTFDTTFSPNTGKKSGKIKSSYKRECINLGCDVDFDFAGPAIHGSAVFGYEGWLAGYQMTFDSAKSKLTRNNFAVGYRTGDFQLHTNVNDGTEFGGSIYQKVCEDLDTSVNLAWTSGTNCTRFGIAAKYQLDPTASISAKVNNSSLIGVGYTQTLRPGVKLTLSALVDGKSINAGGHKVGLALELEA
UniProt P51610: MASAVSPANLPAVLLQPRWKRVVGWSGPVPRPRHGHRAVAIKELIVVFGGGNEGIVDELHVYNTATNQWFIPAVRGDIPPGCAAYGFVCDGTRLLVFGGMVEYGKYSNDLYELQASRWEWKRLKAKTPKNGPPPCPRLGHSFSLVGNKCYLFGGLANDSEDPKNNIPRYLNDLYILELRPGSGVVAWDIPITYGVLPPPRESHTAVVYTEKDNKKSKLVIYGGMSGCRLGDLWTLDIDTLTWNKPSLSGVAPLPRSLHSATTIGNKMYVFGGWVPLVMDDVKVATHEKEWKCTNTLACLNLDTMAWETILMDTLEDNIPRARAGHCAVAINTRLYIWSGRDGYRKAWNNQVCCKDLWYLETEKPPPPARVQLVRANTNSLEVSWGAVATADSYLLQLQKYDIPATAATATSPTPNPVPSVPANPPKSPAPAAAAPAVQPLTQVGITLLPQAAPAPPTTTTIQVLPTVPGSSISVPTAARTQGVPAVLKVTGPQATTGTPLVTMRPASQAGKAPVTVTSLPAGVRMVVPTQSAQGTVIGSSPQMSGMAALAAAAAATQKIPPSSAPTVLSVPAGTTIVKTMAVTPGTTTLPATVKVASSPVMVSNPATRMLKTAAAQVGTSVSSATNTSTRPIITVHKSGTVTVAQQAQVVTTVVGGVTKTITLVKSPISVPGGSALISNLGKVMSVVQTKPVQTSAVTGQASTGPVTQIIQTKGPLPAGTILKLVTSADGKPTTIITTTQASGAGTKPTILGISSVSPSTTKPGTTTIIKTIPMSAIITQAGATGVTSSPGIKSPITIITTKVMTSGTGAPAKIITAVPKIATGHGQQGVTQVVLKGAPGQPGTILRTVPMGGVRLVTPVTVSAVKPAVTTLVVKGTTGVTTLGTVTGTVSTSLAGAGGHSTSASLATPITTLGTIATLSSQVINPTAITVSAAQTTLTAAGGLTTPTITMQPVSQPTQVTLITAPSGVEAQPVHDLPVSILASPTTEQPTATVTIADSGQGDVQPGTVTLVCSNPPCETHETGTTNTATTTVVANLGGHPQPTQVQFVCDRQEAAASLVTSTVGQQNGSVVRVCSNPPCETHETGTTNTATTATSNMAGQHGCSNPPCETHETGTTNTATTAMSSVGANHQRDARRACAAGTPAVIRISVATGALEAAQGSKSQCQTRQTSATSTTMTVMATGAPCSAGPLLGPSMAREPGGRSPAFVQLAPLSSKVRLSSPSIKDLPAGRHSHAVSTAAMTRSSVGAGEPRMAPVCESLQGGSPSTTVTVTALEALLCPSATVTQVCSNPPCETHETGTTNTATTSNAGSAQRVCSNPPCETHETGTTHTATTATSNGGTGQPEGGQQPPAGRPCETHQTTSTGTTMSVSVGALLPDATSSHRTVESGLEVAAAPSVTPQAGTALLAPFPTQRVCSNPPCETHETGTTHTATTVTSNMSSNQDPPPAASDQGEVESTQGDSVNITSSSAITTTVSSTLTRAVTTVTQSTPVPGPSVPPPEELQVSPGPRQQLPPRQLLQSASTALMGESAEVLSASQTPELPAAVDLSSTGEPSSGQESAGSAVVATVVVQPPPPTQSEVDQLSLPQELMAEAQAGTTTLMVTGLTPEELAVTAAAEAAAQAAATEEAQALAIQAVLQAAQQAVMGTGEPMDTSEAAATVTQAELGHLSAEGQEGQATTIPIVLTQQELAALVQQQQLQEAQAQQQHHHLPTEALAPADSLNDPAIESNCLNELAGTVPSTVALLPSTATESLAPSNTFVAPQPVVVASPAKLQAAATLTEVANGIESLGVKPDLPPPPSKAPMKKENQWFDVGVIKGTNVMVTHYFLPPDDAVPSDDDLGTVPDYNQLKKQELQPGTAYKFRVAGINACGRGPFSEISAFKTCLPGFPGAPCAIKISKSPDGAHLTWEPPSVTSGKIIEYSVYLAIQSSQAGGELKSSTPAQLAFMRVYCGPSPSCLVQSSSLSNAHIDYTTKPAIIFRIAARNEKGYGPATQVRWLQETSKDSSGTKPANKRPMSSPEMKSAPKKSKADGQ
UniProt P48059, whole entry, looked up: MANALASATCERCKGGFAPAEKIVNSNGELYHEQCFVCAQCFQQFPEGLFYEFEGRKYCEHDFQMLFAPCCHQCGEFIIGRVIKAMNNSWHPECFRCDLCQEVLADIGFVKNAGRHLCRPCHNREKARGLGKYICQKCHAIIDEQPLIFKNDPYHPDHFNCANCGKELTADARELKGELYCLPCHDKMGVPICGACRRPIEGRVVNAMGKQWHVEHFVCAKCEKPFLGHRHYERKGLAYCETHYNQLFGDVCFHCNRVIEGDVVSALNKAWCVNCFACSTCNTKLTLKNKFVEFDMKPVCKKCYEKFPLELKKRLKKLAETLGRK

compound: COC(=O)C#Cc1ccccc1 [methyl 3-phenylpropiolate]; experiment: log2 ratio of iodoacetamide-alkyne labeling of the cysteine site, DMSO over compound (competition); higher = stronger covalent engagement of the cysteine by the compound, active = 1 or more; details: 500 µM; treatment time 1 h; system: HEK293T cell lysate
How it was run: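 HEK293T lysate (2 mg/mL) was treated with DMSO or electrophile (500 µM, 1 h, ambient temperature), then iodoacetamide alkyne (1 h), clicked to sCIP-TMT reagents, pooled, trypsin-digested overnight at 37 °C, streptavidin-enriched and acid-eluted. Peptides were run on Orbitrap Eclipse LC-MS/MS with FAIMS and quantified in FragPipe. The log2 competition ratio per cysteine is mean control-channel over mean compound-channel reporter intensity. Duplicate channels and three replicates were used, and cysteines quantified in only one replicate were excluded.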

| Target | log2 ratio of iodoacetamide-alkyne labeling |
| --- | --- |
| SMARCA4 C936 (UniProt P51532) | inactive: 0.5 |
| NASP C708 (UniProt P49321) | inactive: 0.364 |
| IREB2 C137 (UniProt P48200) | inactive: 0.995 |
| GALK1 C170 (UniProt P51570) | inactive: 0.0992 |
| MSH2 C822 (UniProt P43246) | inactive: 0.226 |
| MKI67 C1285 (UniProt P46013) | inactive: 0.653 |
| RANBP2 C2791 (UniProt P49792) | inactive: 0.0707 |
| FXR2 C270 (UniProt P51116) | inactive: 0.306 |
| USP5 C335 (UniProt P45974) | inactive: -0.0751 |
| VDAC2 C8 (UniProt P45880) | inactive: 0.376 |
| UniProt P49840_C408 | inactive: 0.29 |
| NAMPT C401 (UniProt P43490) | inactive: 0.0773 |
| MSH2 C176 (UniProt P43246) | inactive: 0.0995 |
| MATR3 C821 (UniProt P43243) | inactive: 0.127 |
| GALK1 C351 (UniProt P51570) | inactive: 0.243 |
| PRIM2 C25 (UniProt P49643) | inactive: 0.0724 |
| NSF C250 (UniProt P46459) | inactive: 0.28 |
| UniProt P49841_C14 | inactive: 0.306 |
| UTRN C862 (UniProt P46939) | inactive: 0.314 |

| Target | log2 ratio of iodoacetamide-alkyne labeling |
| --- | --- |
| CCT3 C475 (UniProt P49368) | inactive: 0.185 |
| MKI67 C1981 (UniProt P46013) | inactive: -0.201 |
| CCT5 C429 (UniProt P48643) | inactive: 0.459 |
| RPL14 C54 (UniProt P50914) | inactive: 0.22 |
| FASN C1548 (UniProt P49327) | inactive: -0.00359 |
| RANGAP1 C303 (UniProt P46060) | inactive: 0.47 |
| RANBP2 C82 (UniProt P49792) | inactive: 0.564 |
| HCFC1 C149 (UniProt P51610) | inactive: 0.469 |
| CCT3 C366 (UniProt P49368) | inactive: 0.0964 |
| AARS C947 (UniProt P49588) | inactive: -0.112 |
| MKI67 C903 (UniProt P46013) | inactive: 0.808 |
| ST13 C16 (UniProt P50502) | inactive: 0.163 |
| FASN C1448 (UniProt P49327) | inactive: 0.263 |
| LIMS1 C138 (UniProt P48059) | inactive: 0.0987 |
| DNA2 C1051 (UniProt P51530) | inactive: 0.324 |
| VDAC2 C13 (UniProt P45880) | active: 1.11 |
| IDH3A C359 (UniProt P50213) | active: 1.05 |
| RANBP1 C132 (UniProt P43487) | inactive: -0.0301 |

2 consecutive entries already listed, for reference:

| Target | log2 ratio of iodoacetamide-alkyne labeling |
| --- | --- |
| DNA2 C1051 (UniProt P51530) | inactive: 0.324 |
| VDAC2 C13 (UniProt P45880) | active: 1.11 |
